This is one part of the list. Shown are side measurements of this screen, not its main read-out; they come without a call. Most of these compounds were active or inconclusive in the main read-out, so they are no random draw. Words in brackets tell the shape of the fitted curve; partial curves, single points and poor fits give uncertain potencies.
Assay: qHTS Assay for Lipid Storage Modulators in Drosophila S3 Cells;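 for cell number change: cells counted by Cell Tracker Red CMTPX staining in the red channel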
Details: BODIPY lipid droplet fluorescence, 18-24 h; for cell number change: measured here: cell count max response, cells fed with added oleic acid
Summary of the method: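 Drosophila S3 cells loaded with oleic acid (400 uM, as added) and compounds at several concentrations; lipid droplets imaged by 488-nm laser-scanning cytometry, 500–530 nm intensity and object ratio to cell channel. Percent activity normalized to 20 uM Triacsin C.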

[1] = measured here: cell number channel AC50, cells fed with added oleic acid
[2] = measured here: lipid fluorescence (Fed channel) AC50, cells fed with added oleic acid

SMILES	cell number change	AC50 [1]	AC50 [2]
Cc1ccc(Cl)c(OCCCN(C)Cc2ccccc2)c1	-60.7%	20.6 µM [falling, single point]	18.4 µM [falling, single point]
C=C1CCC[C@]2(C)C[C@H]3OC(=O)C(CN(Cc4ccc(OC)c(OC)c4)CC(C)O)[C@H]3CC12 (some centres undefined)	3.52%	–	4.61 µM [falling, single point]
CN(C(=O)CCc1nc2ccccc2s1)c1ccccc1	–	2.06 µM [rising, partial curve]	2.06 µM [rising, partial curve]
CC(=O)NC(CSC(CC(=O)c1ccco1)c1ccc(C)cc1)C(=O)O (centres undefined)	16.5%	–	–
O=C(N/N=C/c1ccc([N+](=O)[O-])cc1)c1[nH]ncc1Br	–	–	18.4 µM [rising, single point]
N/C(=N\OC(=O)CSc1ccccc1)c1ccncc1	–	–	2.31 µM [rising, partial curve, poor fit]
Cc1ccnc(NC(=O)c2oc3ccccc3c2C)c1	5.27%	–	7.31 µM [falling, partial curve]
CCN(CC)S(=O)(=O)c1ccc(C(=O)N2CCN(c3ncccn3)CC2)cc1	-23.7%	–	0.282 µM [falling, partial curve, poor fit]
COc1ccccc1NC(=O)C1CCN(c2ncnc3c2nc2n3CCCCC2)CC1	2.64%	0.411 µM [rising, full curve]	–
O=C1CC(c2ccccc2)=Nc2ccc(Br)cc2N1	–	0.00461 µM [rising, full curve, poor fit]	–
CCOC(=O)N/N=C/c1cn(CCCOc2ccccc2)c2ccccc12	-16.7%	–	1.46 µM [falling, partial curve]
CC(C)c1[nH]nc2c1C(C(C)C)C(C#N)=C(N)O2 (centres undefined)	9.93%	–	29.1 µM [rising, single point]
c1ccc(CSC2=NCCCN2)cc1	-24.6%	–	29.1 µM [falling, single point]
O=C(C1CCC(=O)N(C2CC2)C1)N(CCO)Cc1ccccc1 (centres undefined)	11.3%	–	0.291 µM [falling, partial curve, poor fit]
CC1=NN(C(=O)c2ccc(C)cc2)C(O)(C(F)(F)OC(F)(F)F)C1 (centres undefined)	16.1%	–	29.1 µM [rising, single point]
Cc1cccc(C)c1NC(=O)CN(C)CC(=O)Nc1sc2c(c1C(N)=O)CCC2	25%	–	29.1 µM [falling, single point]
O=C(Nc1ccc(F)cc1Cl)c1ccc2c(=O)n3c(nc2c1)CCC3	-15%	–	–
FC(F)(F)c1cnc(-n2cc[nH]c2=S)c(Cl)c1	14.2%	–	0.366 µM [falling, full curve]
CC1(C)C[C@@H]2C[C@@](C)(CN2C(=O)c2cc(COc3cccc(C(F)(F)F)c3)on2)C1	-15%	–	20.6 µM [falling, single point]
Cc1ccc(S(=O)(=O)N2CCN(C(=O)c3ccc4ccccc4n3)CC2)c(C)c1	-48.6%	0.00461 µM [falling, full curve, poor fit]	1.84 µM [falling, partial curve]

5 of the compounds above, as comma-separated lines.
SMILES,cell number change,AC50 [1],AC50 [2]
CC(C)c1[nH]nc2c1C(C(C)C)C(C#N)=C(N)O2 (centres undefined),9.93%,–,"29.1 µM [rising, single point]"
c1ccc(CSC2=NCCCN2)cc1,-24.6%,–,"29.1 µM [falling, single point]"
O=C(C1CCC(=O)N(C2CC2)C1)N(CCO)Cc1ccccc1 (centres undefined),11.3%,–,"0.291 µM [falling, partial curve, poor fit]"
CC1=NN(C(=O)c2ccc(C)cc2)C(O)(C(F)(F)OC(F)(F)F)C1 (centres undefined),16.1%,–,"29.1 µM [rising, single point]"
Cc1cccc(C)c1NC(=O)CN(C)CC(=O)Nc1sc2c(c1C(N)=O)CCC2,25%,–,"29.1 µM [falling, single point]"

Next compounds follow:

SMILES	cell number change	AC50 [1]	AC50 [2]
COc1ccc(/C=N/NC(=S)Nc2cc(S(=O)(=O)N3CCOCC3)ccc2N2CCOCC2)cc1O	92.6%	9.2 µM [rising, single point]	–
COc1ccc(OCC(=O)Nc2ccccc2C(=O)NC2CC2)cc1	-11.6%	–	13 µM [falling, partial curve, poor fit]
Nc1cc(C(=O)OCC(=O)N2CCN(C(=O)COC(=O)c3ccc(Cl)c(N)c3)CC2)ccc1Cl	-25%	–	0.651 µM [rising, single point]
COc1ccccc1CNC(=O)CSc1nc2nc(C)cc(C)n2n1	3.6%	–	6.51 µM [rising, single point]
CCc1cc2c(=O)c(-c3ccc4c(c3)OCCO4)coc2c(CN2CCCCC2C)c1O (centres undefined)	-12%	–	0.517 µM [rising, single point]
Cc1ccc(OCCC(=O)Nc2ccc3c(c2)OCCCO3)cc1	-13%	–	0.58 µM [rising, single point]
Cc1ccc(C2=N/C(=C\c3c(C)nn(-c4ccccc4)c3N3CCCC3)C(=O)O2)cc1	7.54%	–	6.51 µM [rising, single point]
COc1ccccc1C1C(C#N)=C(N)Oc2c1c(-c1ccccc1)nn2-c1ccccc1 (centres undefined)	-0.635%	6.51 µM [falling, single point]	–
CCOP(=O)(OCC)C(Nc1ccccc1)c1cc(OC)ccc1OC (centres undefined)	3.18%	–	–
CC(=O)N1CCN(Cc2nc3ccc(Cl)cc3n2CCO)CC1	1.32%	–	–
CC(=O)Nc1ccc(C(=O)COC(=O)C2CCCCC2)c(F)c1	10.2%	6.51 µM [rising, single point]	3.66 µM [rising, single point]
Cc1cc(=O)oc2c3c(cc(OCC(=O)NCc4cccnc4)c12)OC(C)(C)CC3	0.647%	–	–
Cc1onc(-c2c(Cl)cccc2Cl)c1C(=O)NC(C)(C)CO	-5.07%	–	16.4 µM [falling, partial curve]
COC(=O)CN(C)C(=O)CC1C(=O)NCCN1CC(C)(C)C (centres undefined)	-35.2%	6.51 µM [falling, full curve, poor fit]	–
O=C(COc1ccc(S(=O)(=O)NC2CCCCC2)cc1Cl)N1CCN(c2ccccc2)CC1	69.2%	7.31 µM [rising, partial curve]	6.51 µM [rising, single point]
CCc1cc2c(Sc3nc4ccccc4s3)ncnc2s1	-6.05%	–	32.6 µM [rising, partial curve, poor fit]
CNC(=S)N1CCN(c2cccc(OC)c2)CC1	19.7%	–	25.9 µM [rising, single point]
COc1ccc(CC2(CO)CCN(Cc3nc(C(C)C)cs3)CC2)cc1	-20.1%	–	–
Cc1ccc(-n2c3c(c(O)c(-c4ccccc4)c2=O)C(=O)CC(C)(C)C3)cc1	-18.3%	–	2.31 µM [rising, partial curve]
COc1ccc(/C(C)=N/NC(=O)c2ccc(CSc3nncn3C)cc2)cc1	59.7%	–	–

SMILES	cell number change	AC50 [1]	AC50 [2]
Cc1ccc(NS(=O)(=O)c2cc(C(=O)N3CCCC3)ccc2C)cc1C	-51.6%	20.6 µM [falling, partial curve, poor fit]	–
CSc1nc(N2CCN(c3ccccc3Cl)CC2)c2ccccc2n1	11.4%	–	23.1 µM [rising, partial curve, poor fit]
CCCCOc1ccccc1NC(=O)Cn1c(-c2nonc2N)nc2ccccc21	–	0.411 µM [rising, partial curve]	0.326 µM [rising, full curve]
CC(=O)Nc1nc2ccc(NC(=O)c3ccco3)cc2s1	90.2%	4.61 µM [rising, partial curve]	6.51 µM [rising, single point]
COc1ccc([C@@H]2C[C@H](c3ccccc3)Oc3cc(C)cc(C)c32)cc1	0.849%	–	16.4 µM [rising, single point]
CCOc1ccc(N2C(=O)CC(N3CCN(c4ccc([N+](=O)[O-])cc4)CC3)C2=O)cc1 (centres undefined)	-12.2%	–	14.6 µM [falling, partial curve, poor fit]
Clc1cccc(NCc2nnc(SCc3ccc(Cl)cc3Cl)o2)c1	-36.6%	29.1 µM [falling, single point]	29.1 µM [falling, single point]
COc1ccccc1C(CNC(=O)CSc1ccc2ccccc2c1)N(C)C (centres undefined)	23.7%	–	3.66 µM [rising, full curve]
CCCC(=O)Nc1ccc(OCC(=O)OC)cc1	-204%	18.4 µM [falling, single point]	–
c1cncc(-c2nc(Oc3ccc(-c4nnco4)cc3)c3c4c(sc3n2)CCCC4)c1	2.29%	–	3.66 µM [rising, single point]
O=C(c1ccc(Sc2ccccc2)c([N+](=O)[O-])c1)N1CCOCC1	22.2%	–	1.84 µM [rising, partial curve, poor fit]
COc1cccc(COCCN2CCN(S(=O)(=O)c3ccc(C)cc3)CCC2=O)c1	–	–	18.4 µM [rising, single point]
COc1ccc(NC(=O)CN2CCCCCC2)cc1OC	12.1%	–	20.6 µM [rising, single point]
CCOC(=O)c1c(NC(=O)CSc2nnnn2C)sc(C(=O)N(C)C)c1C	51.4%	29.1 µM [rising, single point]	29.1 µM [rising, single point]
COc1ccc(C(=O)NCCS(=O)(=O)N2CCN(C(=O)c3ccco3)CC2)cc1	0.962%	–	2.59 µM [rising, full curve, poor fit]
COc1ccc2c3n([n+]([O-])c2c1)CCN=C3c1ccc(Cl)cc1	17.6%	0.231 µM [falling, single point]	0.517 µM [falling, partial curve]
COc1cc(C2CC(=O)c3cnc(NC(=O)c4ccco4)nc3C2)cc(OC)c1OC (centres undefined)	12.8%	–	–
Cc1cc[n+](CC(=O)c2ccc(NC(=O)c3ccccc3)cc2)cc1	–	–	0.731 µM [falling, single point]
CCc1nnc(NC(=O)c2ccc(S(=O)(=O)N(CCOC)CCOC)cc2)s1	-14.4%	0.92 µM [rising, full curve, poor fit]	20.6 µM [rising, partial curve, poor fit]

— PubChem BioAssay AID2685 (National Center for Advancing Translational Sciences (NCATS), 2010)
